Measured values reported in the supplement of paper PMC10849652.
The other results are listed elsewhere or left out.

By UniProt entry, the sequences of proteins in these tests, tags left out. Where a name states a change or a piece, a line headed by the entry shows the natural chain unless it says otherwise.
UniProt Q2TAL8: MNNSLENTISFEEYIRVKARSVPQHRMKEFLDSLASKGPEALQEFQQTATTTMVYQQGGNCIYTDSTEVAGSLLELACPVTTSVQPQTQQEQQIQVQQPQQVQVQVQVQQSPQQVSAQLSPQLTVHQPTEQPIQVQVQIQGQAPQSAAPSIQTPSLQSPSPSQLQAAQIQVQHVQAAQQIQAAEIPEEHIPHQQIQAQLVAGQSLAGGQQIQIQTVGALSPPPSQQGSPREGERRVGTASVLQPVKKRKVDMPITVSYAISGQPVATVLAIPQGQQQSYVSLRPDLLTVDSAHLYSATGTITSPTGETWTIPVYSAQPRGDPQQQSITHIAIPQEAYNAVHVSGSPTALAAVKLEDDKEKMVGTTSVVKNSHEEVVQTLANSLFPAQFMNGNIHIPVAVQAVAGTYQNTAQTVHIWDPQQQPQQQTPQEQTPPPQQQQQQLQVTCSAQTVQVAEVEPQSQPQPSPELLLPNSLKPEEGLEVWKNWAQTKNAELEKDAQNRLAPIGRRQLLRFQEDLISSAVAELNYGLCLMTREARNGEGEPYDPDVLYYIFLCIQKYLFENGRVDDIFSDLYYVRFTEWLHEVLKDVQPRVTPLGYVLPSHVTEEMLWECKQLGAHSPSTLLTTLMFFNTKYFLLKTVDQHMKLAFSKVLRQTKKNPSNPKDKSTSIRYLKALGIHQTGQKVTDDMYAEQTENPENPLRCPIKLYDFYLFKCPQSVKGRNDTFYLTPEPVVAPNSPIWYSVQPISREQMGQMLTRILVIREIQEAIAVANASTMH
UniProt Q6IQ22: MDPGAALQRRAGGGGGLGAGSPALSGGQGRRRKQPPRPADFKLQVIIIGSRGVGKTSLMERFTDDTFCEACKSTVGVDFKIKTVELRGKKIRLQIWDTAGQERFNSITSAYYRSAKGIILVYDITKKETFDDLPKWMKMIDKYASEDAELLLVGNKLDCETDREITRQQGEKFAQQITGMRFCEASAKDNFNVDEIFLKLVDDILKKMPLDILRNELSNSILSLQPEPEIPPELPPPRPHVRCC
UniProt P09417: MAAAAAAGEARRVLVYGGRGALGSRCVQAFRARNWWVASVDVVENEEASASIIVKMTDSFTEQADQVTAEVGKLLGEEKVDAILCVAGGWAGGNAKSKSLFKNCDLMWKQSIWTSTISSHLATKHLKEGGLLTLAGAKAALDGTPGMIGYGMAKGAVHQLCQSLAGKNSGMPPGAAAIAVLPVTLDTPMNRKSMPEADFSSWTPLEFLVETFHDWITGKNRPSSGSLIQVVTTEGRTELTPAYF
UniProt Q06609, whole entry, looked up: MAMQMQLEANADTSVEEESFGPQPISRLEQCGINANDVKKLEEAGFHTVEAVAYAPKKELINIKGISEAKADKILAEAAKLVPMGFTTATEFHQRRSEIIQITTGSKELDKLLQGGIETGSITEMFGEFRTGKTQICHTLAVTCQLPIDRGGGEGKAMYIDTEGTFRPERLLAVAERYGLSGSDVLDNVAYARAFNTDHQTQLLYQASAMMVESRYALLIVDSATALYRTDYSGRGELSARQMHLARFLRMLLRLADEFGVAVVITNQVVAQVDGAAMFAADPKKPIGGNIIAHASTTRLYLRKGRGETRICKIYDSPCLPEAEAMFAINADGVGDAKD
UniProt P47736: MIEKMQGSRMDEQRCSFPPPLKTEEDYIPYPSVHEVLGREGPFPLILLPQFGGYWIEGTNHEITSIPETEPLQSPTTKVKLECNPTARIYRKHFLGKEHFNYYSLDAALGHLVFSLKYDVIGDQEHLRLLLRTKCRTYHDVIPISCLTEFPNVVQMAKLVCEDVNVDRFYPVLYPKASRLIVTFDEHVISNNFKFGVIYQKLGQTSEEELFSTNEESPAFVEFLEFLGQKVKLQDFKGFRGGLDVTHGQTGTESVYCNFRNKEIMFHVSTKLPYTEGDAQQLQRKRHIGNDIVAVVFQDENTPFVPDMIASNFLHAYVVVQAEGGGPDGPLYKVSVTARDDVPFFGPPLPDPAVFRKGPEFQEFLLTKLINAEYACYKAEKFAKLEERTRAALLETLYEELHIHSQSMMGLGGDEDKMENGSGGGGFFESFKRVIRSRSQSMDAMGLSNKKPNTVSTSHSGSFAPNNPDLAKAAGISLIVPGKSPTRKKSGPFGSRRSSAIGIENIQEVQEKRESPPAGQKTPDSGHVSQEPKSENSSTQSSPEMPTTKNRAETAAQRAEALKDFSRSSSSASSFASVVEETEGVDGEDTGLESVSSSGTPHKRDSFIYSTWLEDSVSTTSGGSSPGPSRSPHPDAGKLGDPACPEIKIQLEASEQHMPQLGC
UniProt Q9H0U4: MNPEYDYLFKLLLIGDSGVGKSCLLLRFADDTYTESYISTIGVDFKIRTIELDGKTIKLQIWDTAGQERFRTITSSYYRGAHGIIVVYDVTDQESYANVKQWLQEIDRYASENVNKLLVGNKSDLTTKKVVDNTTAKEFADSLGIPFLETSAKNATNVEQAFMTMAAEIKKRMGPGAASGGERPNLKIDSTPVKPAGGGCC
UniProt Q7Z6M1: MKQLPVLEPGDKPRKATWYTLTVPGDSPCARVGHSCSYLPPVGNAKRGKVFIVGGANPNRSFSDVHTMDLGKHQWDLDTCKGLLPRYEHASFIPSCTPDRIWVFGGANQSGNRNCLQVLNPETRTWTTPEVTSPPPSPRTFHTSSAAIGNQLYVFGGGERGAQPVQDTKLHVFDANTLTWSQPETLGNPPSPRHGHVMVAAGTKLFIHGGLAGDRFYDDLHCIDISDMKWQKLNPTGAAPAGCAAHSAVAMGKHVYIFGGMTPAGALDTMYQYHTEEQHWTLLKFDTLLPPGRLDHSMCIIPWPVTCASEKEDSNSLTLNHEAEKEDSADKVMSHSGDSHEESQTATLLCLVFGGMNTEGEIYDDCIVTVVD
UniProt Q99638: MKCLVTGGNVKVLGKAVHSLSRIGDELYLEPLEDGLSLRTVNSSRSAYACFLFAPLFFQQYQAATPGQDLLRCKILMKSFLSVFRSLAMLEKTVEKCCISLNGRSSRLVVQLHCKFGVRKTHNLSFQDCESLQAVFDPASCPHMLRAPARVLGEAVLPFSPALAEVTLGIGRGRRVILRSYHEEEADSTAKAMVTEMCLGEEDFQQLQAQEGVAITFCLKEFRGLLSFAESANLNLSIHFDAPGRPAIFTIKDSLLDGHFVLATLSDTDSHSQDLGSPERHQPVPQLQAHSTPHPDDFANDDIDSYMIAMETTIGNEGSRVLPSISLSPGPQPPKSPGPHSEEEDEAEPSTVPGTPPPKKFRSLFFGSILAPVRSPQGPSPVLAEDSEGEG
UniProt O60671: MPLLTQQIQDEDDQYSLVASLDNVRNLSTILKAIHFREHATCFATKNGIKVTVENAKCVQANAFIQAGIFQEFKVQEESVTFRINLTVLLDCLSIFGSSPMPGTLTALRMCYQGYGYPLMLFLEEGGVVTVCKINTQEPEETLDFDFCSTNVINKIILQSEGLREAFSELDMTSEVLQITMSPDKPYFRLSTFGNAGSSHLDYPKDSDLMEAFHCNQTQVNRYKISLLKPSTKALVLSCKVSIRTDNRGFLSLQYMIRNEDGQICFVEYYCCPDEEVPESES
UniProt Q9Y6I8: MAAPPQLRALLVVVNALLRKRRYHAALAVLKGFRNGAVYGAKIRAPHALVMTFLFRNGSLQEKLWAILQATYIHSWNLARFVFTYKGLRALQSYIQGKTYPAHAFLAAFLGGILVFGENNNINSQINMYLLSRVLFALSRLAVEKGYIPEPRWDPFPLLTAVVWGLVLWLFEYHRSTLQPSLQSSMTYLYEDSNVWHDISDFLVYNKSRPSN
UniProt Q9H6Z4: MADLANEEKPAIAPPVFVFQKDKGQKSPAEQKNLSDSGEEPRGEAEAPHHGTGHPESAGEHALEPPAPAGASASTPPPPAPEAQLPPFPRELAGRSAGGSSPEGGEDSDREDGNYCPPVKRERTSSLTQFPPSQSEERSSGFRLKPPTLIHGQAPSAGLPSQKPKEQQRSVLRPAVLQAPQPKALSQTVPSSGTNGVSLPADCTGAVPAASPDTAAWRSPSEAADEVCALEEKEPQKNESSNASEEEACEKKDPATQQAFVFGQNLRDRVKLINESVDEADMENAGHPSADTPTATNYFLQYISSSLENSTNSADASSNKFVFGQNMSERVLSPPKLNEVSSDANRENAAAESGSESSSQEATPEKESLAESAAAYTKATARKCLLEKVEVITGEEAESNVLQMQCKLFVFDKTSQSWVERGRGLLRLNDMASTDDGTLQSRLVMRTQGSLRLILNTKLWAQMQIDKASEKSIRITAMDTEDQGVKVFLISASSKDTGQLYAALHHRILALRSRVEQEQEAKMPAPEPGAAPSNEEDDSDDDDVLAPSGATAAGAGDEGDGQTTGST
UniProt P20338: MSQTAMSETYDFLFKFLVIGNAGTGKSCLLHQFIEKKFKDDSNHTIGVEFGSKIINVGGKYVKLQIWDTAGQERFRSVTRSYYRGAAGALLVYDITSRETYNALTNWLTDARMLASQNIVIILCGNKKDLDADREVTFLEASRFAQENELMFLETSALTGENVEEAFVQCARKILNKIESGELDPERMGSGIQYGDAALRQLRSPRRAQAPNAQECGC
UniProt Q96I23: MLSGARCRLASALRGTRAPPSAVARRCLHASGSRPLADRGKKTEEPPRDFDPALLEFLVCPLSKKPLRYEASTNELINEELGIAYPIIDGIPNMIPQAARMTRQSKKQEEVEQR
UniProt Q9NP72: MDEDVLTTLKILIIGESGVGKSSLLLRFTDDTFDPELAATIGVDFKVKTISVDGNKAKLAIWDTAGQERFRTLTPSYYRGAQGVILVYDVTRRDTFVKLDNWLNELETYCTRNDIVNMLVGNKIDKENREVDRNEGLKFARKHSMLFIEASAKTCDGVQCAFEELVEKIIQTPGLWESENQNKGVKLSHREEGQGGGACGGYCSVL
UniProt P46060: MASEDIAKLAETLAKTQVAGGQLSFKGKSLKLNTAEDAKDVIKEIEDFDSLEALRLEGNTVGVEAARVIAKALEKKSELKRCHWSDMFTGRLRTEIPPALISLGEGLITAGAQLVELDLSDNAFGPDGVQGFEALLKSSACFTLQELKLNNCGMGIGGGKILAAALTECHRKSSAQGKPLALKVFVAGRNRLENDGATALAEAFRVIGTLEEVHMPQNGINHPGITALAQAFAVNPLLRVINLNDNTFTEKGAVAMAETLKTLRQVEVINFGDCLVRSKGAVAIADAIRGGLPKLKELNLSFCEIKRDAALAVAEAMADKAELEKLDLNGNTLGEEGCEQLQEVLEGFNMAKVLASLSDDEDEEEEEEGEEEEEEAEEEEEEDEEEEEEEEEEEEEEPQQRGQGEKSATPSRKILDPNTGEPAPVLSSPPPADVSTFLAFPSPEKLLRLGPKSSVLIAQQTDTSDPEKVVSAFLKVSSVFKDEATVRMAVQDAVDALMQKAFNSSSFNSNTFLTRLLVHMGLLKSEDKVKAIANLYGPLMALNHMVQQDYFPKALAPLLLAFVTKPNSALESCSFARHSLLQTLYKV

Tests used:
Experiment in all cases: log2 fold change, soluble protein after heating vs DMSO (PISA); higher = thermal stabilisation; K562 lysate, 10 uM; active = over 0.2 and 3.5 SD of the protein, either way, in both replicates (recomputed)
ibrutinib = compound: C=CC(=O)N1CCC[C@@H](n2nc(-c3ccc(Oc4ccccc4)cc3)c3c(N)ncnc32)C1 [ibrutinib]
Summary of the method: (§1)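 K562 pellets were dounce-homogenised in PBS pH 7.4 containing 1 mM MgCl2, and the crude extract, at 1 mg/mL protein, was exposed to 10 μM compound for 30 min. Aliquots were heated for 3 min across 48°C-58°C, pooled, brought to 0.5% NP-40 at 4°C and spun at 21,000xg for 90 min, with the supernatant taken as soluble protein. TMTpro 16plex LC-MS/MS with equalised channel sums quantified that protein. Values are log-two fold changes in thermal stability relative to solvent controls, taken from duplicates.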

[1] = compound: CC(=O)c1cnc2ccc(-c3cc(Cl)c(O)c(Cl)c3)nc2c1N[C@H]1CC[C@H](CN(C)C)CC1
Summary of the method: as §1

ralimetinib = compound: CC(C)(C)Cn1c(N)nc2ccc(-c3[nH]c(C(C)(C)C)nc3-c3ccc(F)cc3)nc21 [ralimetinib]
Summary of the method: as §1

[2] = compound: CC(C)(O)CC(=O)NCCn1ccc2ncnc(Nc3ccc(Oc4cccc(C(F)(F)F)c4)c(Cl)c3)c21
Summary of the method: as §1

[3] = compound: CC(C)C1=C2N=C(C=C(N2N=C1)NCC3=CC=CC=C3)NCCCCCCN
Summary of the method: as §1

[4] = compound: CC1=C(C(CC(=O)N1)C2=CC=C(C=C2)C(F)(F)F)C(=O)NC3=C(C=C4C(=C3)C=NN4)F
Summary of the method: as §1

[5] = compound: CC1=C(C2=C(C=C1)C(=O)C3=CC=CC=C3N2CCCN)C
Summary of the method: as §1

[6] = compound: CC1=C(C=C(C=C1)NC(=O)C2=CC(=CC=C2)C(C)(C)C#N)NC3=CC4=C(C=C3)N=CN(C4=O)C
Summary of the method: as §1

[7] = compound: CC1=C(C=C(C=C1)NC(=O)C2=CC(=CC=C2)N(C)C)NC(=O)C3=CC=C(C=C3)O
Summary of the method: as §1

[8] = compound: CC1=CC=C(C=C1)SC2=C3C=C(SC3=CN=C2)C(=O)N
Summary of the method: as §1

vemurafenib = compound: CCCS(=O)(=O)Nc1ccc(F)c(C(=O)c2c[nH]c3ncc(-c4ccc(Cl)cc4)cc23)c1F [vemurafenib]
Summary of the method: as §1

[9] = compound: CCCS(=O)(=O)Nc1ccc(F)c(C(=O)c2c[nH]c3ncc(Cl)cc23)c1F
Summary of the method: as §1

barasertib = compound: CCN(CCCOc1ccc2c(Nc3cc(CC(=O)Nc4cccc(F)c4)[nH]n3)ncnc2c1)CCOP(=O)(O)O [barasertib]
Summary of the method: as §1

[10] = compound: CC[C@@H]1C(=O)N(C)c2cnc(Nc3ccc(C(=O)NC4CCN(C)CC4)cc3OC)nc2N1C1CCCC1
Summary of the method: as §1

volasertib = compound: CC[C@@H]1C(=O)N(C)c2cnc(Nc3ccc(C(=O)N[C@H]4CC[C@H](N5CCN(CC6CC6)CC5)CC4)cc3OC)nc2N1C(C)C [volasertib]
Summary of the method: as §1

[11] = compound: CCn1c(C(=O)N(C2CC2)C2CC2)cc2c3c(ncn3C)c(Nc3cc(C)n(C)n3)nc21
Summary of the method: as §1

[12] = compound: CCn1cc(-c2ccnc3[nH]c(-c4cccc(CN(C)C)c4)cc23)c(-c2ccc(NC(=O)N(C)C)cc2)n1
Summary of the method: as §1

[13] = compound: CN1CCC(CNc2ccc3ncc(-c4cccc(OC(F)(F)F)c4)n3n2)CC1
Summary of the method: as §1

saracatinib = compound: CN1CCN(CCOc2cc(OC3CCOCC3)c3c(Nc4c(Cl)ccc5c4OCO5)ncnc3c2)CC1 [saracatinib]
Summary of the method: as §1

sotrastaurin = compound: CN1CCN(c2nc(C3=C(c4c[nH]c5ccccc45)C(=O)NC3=O)c3ccccc3n2)CC1 [sotrastaurin]
Summary of the method: as §1

Measured: log2 fold change

QRICH1 (UniProt Q2TAL8)
inactive: ibrutinib -0.01 | [1] 0.027 | ralimetinib 0.043 | [2] -0.015 | [3] -0.007 | [4] -0.004 | [5] 0.049 | [6] -0.043 | [7] 0.01 | [8] 0.04 | vemurafenib -0.022 | [9] 0.047 | barasertib 0.038 | [10] -0.035 | volasertib -0.082 | [11] 0.004 | [12] -0.05 | [13] -0.03 | saracatinib 0.049 | sotrastaurin 0.027

RAB12 (UniProt Q6IQ22)
inactive: ibrutinib 0.015 | [1] -0.013 | ralimetinib 0.036 | [2] -0.016 | [3] -0.017 | [4] 0.017 | [5] 0.031 | [6] 0.036 | [7] 0.031 | [8] 0.021 | vemurafenib -0.007 | [9] 0.025 | barasertib -0.002 | [10] 0.054 | volasertib 0.017 | [11] -0.003 | [12] -0.043 | [13] 0.041 | saracatinib -0.017 | sotrastaurin 0.004

QDPR (UniProt P09417)
inactive: ibrutinib 0.038 | [1] -0.008 | ralimetinib -0.021 | [2] -0.007 | [3] 0 | [4] -0.003 | [5] -0.004 | [6] 0.005 | [7] 0.028 | [8] 0.018 | vemurafenib -0.037 | [9] 0.002 | barasertib 0.007 | [10] 0.018 | volasertib 0.021 | [11] 0.019 | [12] -0.021 | [13] 0.011 | saracatinib -0.026 | sotrastaurin 0.019

RAD51 (UniProt Q06609)
inactive: ibrutinib -0.012 | [1] 0.024 | ralimetinib 0.032 | [2] -0.034 | [3] 0.069 | [4] -0.089 | [5] -0.064 | [6] -0.049 | [7] 0.009 | [8] 0.014 | vemurafenib 0.061 | [9] 0.023 | barasertib 0.172 | [10] 0.007 | volasertib -0.046 | [11] -0.022 | [12] 0.129 | [13] 0.026 | saracatinib 0.056 | sotrastaurin -0.025

RAN (UniProt P62826)
inactive: ibrutinib -0.024 | [1] 0.023 | ralimetinib -0.013 | [2] 0.001 | [3] 0.016 | [4] -0.042 | [5] -0.002 | [6] -0.023 | [7] 0.002 | [8] 0.037 | vemurafenib -0.021 | [9] -0.047 | barasertib -0.039 | [10] 0.033 | volasertib -0.001 | [11] -0.021 | [12] 0.07 | [13] -0.041 | saracatinib -0.005 | sotrastaurin -0.016

RAP1GAP isoform 4 (UniProt P47736)
inactive: ibrutinib -0.024 | [1] 0.018 | ralimetinib 0.068 | [2] -0.037 | [3] 0.051 | [4] 0.003 | [5] -0.008 | [6] 0.056 | [7] -0.009 | [8] -0.012 | vemurafenib 0.009 | [9] 0.055 | barasertib 0.008 | [10] 0.044 | volasertib -0.075 | [11] 0.003 | [12] -0.038 | [13] 0.02 | saracatinib 0.06 | sotrastaurin 0.029

RAB1B (UniProt Q9H0U4)
active: [12] -0.444
inactive: ibrutinib -0.011 | [1] -0.01 | ralimetinib -0.014 | [2] -0.012 | [3] -0.006 | [4] 0.02 | [5] -0.014 | [6] -0.036 | [7] -0.011 | [8] -0.006 | vemurafenib -0.003 | [9] 0.012 | barasertib 0.073 | [10] 0.019 | volasertib 0.006 | [11] -0.016 | [13] 0.171 | saracatinib 0.021 | sotrastaurin 0.017

RABEPK (UniProt Q7Z6M1)
inactive: ibrutinib 0 | [1] -0.002 | ralimetinib 0.01 | [2] -0.006 | [3] 0.018 | [4] -0.009 | [5] -0.007 | [6] 0.008 | [7] 0.001 | [8] 0 | vemurafenib -0.024 | [9] 0.003 | barasertib -0.066 | [10] 0.014 | volasertib -0.006 | [11] -0.021 | [12] 0.015 | [13] 0.011 | saracatinib -0.02 | sotrastaurin -0.028

RAD9A (UniProt Q99638)
inactive: ibrutinib 0.027 | [1] -0.004 | ralimetinib 0.062 | [2] -0.04 | [3] -0.025 | [4] -0.054 | [5] -0.042 | [6] 0.018 | [7] 0.006 | [8] -0.005 | vemurafenib -0.043 | [9] 0.006 | barasertib 0.038 | [10] -0.063 | volasertib -0.001 | [11] 0.04 | [12] -0.038 | [13] 0.038 | saracatinib 0.009 | sotrastaurin 0.052

RAD1 (UniProt O60671)
inactive: ibrutinib 0.082 | [1] 0 | ralimetinib 0.002 | [2] 0.039 | [3] 0.06 | [4] 0.052 | [5] -0.046 | [6] 0.042 | [7] -0.003 | [8] -0.045 | vemurafenib 0.031 | [9] 0.022 | barasertib -0.064 | [10] -0.035 | volasertib 0.016 | [11] 0.038 | [12] -0.017 | [13] 0.059 | saracatinib 0.025 | sotrastaurin -0.006

PXMP4 (UniProt Q9Y6I8)
inactive: ibrutinib -0.022 | [1] 0 | ralimetinib 0.012 | [2] -0.076 | [3] -0.18 | [4] -0.008 | [5] 0.066 | [6] 0.234 | [7] -0.007 | [8] 0.023 | vemurafenib 0.343 | [9] 0.114 | barasertib 0.04 | [10] -0.035 | volasertib -0.039 | [11] 0.064 | [12] -0.246 | [13] 0.006 | saracatinib 0.036 | sotrastaurin 0.025

RANBP3 (UniProt Q9H6Z4)
inactive: ibrutinib 0.003 | [1] 0.001 | ralimetinib 0.001 | [2] -0.012 | [3] -0.028 | [4] -0.011 | [5] -0.054 | [6] 0.029 | [7] -0.005 | [8] -0.02 | vemurafenib 0.02 | [9] 0 | barasertib -0.01 | [10] 0.021 | volasertib 0.012 | [11] -0.03 | [12] -0.01 | [13] 0.076 | saracatinib -0.024 | sotrastaurin 0.013

RAB4A (UniProt P20338)
inactive: ibrutinib 0.094 | [1] 0.005 | ralimetinib -0.007 | [2] -0.026 | [3] -0.016 | [4] 0.016 | [5] -0.03 | [6] -0.027 | [7] 0 | [8] 0.023 | vemurafenib -0.043 | [9] 0.034 | barasertib 0.047 | [10] -0.009 | volasertib 0.022 | [11] 0.044 | [12] 0.116 | [13] 0.018 | saracatinib 0.002 | sotrastaurin 0.002

PYURF (UniProt Q96I23)
inactive: ibrutinib 0.189 | [1] -0.026 | ralimetinib -0.005 | [2] 0.079 | [3] 0.016 | [4] 0.058 | [5] -0.05 | [6] 0.084 | [7] 0.012 | [8] -0.026 | vemurafenib -0.048 | [9] -0.003 | barasertib -0.049 | [10] 0.103 | volasertib 0.059 | [11] 0.042 | [12] -0.03 | [13] -0.002 | saracatinib -0.013 | sotrastaurin -0.034

RAB18 isoform 2 (UniProt Q9NP72)
inactive: ibrutinib -0.012 | [1] -0.02 | ralimetinib -0.011 | [2] 0.024 | [3] 0.012 | [4] 0.008 | [5] -0.048 | [6] -0.026 | [7] 0.019 | [8] -0.045 | vemurafenib -0.015 | [9] 0.028 | barasertib -0.04 | [10] -0.023 | volasertib 0.018 | [11] -0.038 | [12] 0.026 | [13] 0.073 | saracatinib 0.015 | sotrastaurin -0.003

RANGAP1 (UniProt P46060)
inactive: ibrutinib -0.013 | [1] -0.016 | ralimetinib -0.011 | [2] 0.008 | [3] -0.004 | [4] -0.013 | [5] 0.006 | [6] -0.002 | [7] 0.005 | [8] 0 | vemurafenib -0.019 | [9] 0.015 | barasertib 0.005 | [10] -0.039 | volasertib -0.021 | [11] 0.002 | [12] -0.008 | [13] -0.033 | saracatinib 0.013 | sotrastaurin -0.008
